The test system of the assay is C3AKF1 mice, hamster liver cystadenocarcinoma s.c., tumor weight T/C. The assay can be described thus: NCI In Vivo Anticancer Drug Screen. Data for tumor model Cystadenocarcinoma, Liver (No. 1) (Hamster) (subcutaneous) in C3AKF1 (CHKRF1) mice. The following applies: T/C endpoint: mean tumor weight, schedule: Q01DX010 (ip), vehicle: carboxymethylcellulose (CMC), evaluation day not shown, higher T/C = larger tumour. How it is done:
The antitumor activity of compounds was measured in mice bearing transplantable tumors. Survival or tumor size were measured and the results are expressed as the measurement made in the treated group (T) divided by the measurement made in the vehicle treated control group (C). The tumor model used in this assay is Cystadenocarcinoma, Liver (No. 1) (Hamster) (subcutaneous) in C3AKF1 (CHKRF1) mice

T/C data for five molecules are collected here from PubChem BioAssay AID234 (DTP/NCI, 2004).

The list shows only some results of the screen, not a fair sample: its compounds were picked by chemical class. Not every dose and run of a compound is shown. T/C is the treated group as % of the vehicle group. Some entries show no survivor count and are marked so; the dose need not have been tolerated. Schedules are NCI's codes, read here as Q, the interval in days (D) or hours (H), X, the number of doses.

`Oc1ccc(Cl)cc1CN(CCCl)CCCl`: the T/C runs as follows: (dose: 2.5 mg/kg/injection) 129 % of control [survivor count not shown]; (dose: 5.0 mg/kg/injection) 104 % of control [survivor count not shown]; (dose: 10.0 mg/kg/injection) 113 % of control [survivor count not shown]; (dose: 20.0 mg/kg/injection) 105 % of control [survivor count not shown].
Regarding `ClCCN(CCCl)Cc1nc2cc(Cl)c(Cl)cc2[nH]1`, the T/C (dose: 12.5 mg/kg/injection) is 74 % of control [survivor count not shown], the T/C (dose: 25.0 mg/kg/injection) is 94 % of control [survivor count not shown], the T/C (dose: 50.0 mg/kg/injection) was 114 % of control [survivor count not shown] and the T/C (dose: 100.0 mg/kg/injection) was 103 % of control [survivor count not shown].
As to `O=C(O)C(=O)Cc1ccc(N(CCCl)CCCl)cc1`, the T/C is 88 % of control [survivor count not shown] (dose: 6.0 mg/kg/injection) and 75 % of control [survivor count not shown] (dose: 12.0 mg/kg/injection).
Turning to `ClCCN(CCCl)Cc1nc2ccc(Cl)cc2[nH]1`, the T/C runs as follows: (dose: 5.0 mg/kg/injection) 109 % of control [survivor count not shown]; (dose: 10.0 mg/kg/injection) 130 % of control [survivor count not shown].
`COc1cccc(N(CCCl)CCCl)c1OC`: the T/C is, setting by setting: (dose: 15.0 mg/kg/injection) 75 % of control [survivor count not shown]; (dose: 30.0 mg/kg/injection) 87 % of control [survivor count not shown]; (dose: 60.0 mg/kg/injection) 70 % of control [survivor count not shown]; (dose: 80.0 mg/kg/injection) 75 % of control [survivor count not shown].
